Test results as given in publication PMC9716733.
No constants are given. Whether binding was seen depends on the method and setting. In cells and extracts the contact can be indirect. Some entries that bind do so weakly or less than the wild type.

Amino acid sequences for entries named in this document (tags omitted).
UniProt Q16665: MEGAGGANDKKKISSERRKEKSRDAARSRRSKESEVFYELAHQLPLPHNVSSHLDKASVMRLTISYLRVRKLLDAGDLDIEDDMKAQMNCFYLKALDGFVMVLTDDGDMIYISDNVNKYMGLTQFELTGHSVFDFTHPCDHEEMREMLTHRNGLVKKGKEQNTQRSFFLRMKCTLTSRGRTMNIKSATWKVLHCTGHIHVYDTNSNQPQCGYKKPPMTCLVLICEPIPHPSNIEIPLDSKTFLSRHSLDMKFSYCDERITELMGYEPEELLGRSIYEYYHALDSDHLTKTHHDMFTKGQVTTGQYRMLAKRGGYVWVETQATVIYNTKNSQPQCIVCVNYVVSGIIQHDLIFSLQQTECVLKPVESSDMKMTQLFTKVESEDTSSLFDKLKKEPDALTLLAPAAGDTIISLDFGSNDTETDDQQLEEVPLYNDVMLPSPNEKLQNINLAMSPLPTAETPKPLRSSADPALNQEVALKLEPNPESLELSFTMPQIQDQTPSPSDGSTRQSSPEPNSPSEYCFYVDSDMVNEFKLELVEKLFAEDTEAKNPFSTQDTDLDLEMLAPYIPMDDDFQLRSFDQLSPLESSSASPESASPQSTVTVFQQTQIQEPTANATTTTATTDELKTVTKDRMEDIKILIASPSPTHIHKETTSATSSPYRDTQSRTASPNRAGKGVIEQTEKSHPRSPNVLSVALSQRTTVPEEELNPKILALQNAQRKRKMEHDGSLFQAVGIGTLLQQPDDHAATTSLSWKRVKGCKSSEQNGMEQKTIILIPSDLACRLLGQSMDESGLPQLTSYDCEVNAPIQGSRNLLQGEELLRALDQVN
UniProt Q92793: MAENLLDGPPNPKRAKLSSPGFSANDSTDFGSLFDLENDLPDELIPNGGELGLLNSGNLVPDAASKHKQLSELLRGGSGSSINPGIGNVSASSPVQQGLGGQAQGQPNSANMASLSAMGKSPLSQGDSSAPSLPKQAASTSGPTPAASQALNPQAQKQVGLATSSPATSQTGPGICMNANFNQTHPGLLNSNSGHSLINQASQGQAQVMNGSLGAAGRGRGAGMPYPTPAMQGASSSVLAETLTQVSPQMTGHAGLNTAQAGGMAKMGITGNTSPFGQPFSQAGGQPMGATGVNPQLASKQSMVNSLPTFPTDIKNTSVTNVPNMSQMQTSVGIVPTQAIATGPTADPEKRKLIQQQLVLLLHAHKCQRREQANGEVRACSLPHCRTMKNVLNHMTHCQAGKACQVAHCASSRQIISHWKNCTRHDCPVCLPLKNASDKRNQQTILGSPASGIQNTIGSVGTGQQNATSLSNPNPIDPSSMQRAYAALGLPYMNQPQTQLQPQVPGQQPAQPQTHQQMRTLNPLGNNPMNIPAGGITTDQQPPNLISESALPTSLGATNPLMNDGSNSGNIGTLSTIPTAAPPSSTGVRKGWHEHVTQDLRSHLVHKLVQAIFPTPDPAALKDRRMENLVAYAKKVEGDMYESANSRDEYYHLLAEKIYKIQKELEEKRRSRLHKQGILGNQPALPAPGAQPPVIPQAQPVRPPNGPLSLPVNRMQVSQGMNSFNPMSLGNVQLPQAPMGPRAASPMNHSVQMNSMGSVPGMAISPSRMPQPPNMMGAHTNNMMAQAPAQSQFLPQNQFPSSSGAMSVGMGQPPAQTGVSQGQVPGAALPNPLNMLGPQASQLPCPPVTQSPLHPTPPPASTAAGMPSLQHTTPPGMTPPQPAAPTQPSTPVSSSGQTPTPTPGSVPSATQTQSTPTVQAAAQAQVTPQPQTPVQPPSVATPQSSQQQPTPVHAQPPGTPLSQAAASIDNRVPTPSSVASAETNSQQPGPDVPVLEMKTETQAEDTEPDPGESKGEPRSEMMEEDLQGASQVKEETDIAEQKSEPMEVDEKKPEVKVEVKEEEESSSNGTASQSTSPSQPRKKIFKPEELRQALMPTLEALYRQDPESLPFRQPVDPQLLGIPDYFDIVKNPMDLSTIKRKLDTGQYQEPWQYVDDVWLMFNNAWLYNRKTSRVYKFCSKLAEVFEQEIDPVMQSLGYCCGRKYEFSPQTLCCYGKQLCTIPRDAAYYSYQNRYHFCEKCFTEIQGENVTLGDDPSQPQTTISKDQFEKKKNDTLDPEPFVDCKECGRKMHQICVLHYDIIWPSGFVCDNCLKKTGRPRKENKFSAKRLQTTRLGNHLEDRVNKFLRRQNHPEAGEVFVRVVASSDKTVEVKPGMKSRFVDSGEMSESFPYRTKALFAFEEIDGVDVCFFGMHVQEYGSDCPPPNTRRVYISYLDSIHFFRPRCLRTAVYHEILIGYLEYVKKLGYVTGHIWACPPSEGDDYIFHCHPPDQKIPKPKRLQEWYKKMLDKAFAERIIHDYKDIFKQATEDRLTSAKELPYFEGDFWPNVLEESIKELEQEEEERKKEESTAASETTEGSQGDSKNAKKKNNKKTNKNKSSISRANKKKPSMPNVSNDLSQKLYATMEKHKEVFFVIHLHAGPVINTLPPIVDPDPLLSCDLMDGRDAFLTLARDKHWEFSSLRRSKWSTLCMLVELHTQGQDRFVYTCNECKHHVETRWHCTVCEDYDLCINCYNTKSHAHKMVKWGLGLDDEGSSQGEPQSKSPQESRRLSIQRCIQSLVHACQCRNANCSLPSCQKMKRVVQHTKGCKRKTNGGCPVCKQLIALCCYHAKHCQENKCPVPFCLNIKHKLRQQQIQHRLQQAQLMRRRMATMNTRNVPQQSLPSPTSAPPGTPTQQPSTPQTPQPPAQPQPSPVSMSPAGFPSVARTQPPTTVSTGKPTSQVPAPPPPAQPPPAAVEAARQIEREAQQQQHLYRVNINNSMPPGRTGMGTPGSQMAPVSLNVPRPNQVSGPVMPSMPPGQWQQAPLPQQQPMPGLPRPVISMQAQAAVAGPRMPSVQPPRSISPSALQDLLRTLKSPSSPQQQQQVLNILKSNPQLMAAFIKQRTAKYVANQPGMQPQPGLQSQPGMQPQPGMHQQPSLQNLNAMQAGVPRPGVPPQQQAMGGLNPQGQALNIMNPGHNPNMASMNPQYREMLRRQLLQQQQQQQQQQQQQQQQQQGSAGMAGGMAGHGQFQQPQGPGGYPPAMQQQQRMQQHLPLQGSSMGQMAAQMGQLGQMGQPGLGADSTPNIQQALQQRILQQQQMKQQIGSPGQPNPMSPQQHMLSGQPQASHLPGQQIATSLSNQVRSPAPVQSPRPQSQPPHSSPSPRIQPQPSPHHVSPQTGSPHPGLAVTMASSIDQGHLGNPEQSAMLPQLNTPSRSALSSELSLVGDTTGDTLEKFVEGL

Target: HIF-1α (UniProt Q16665)
Test: co-IP; co-immunoprecipitation from total cell protein extracts, performed as previously described (refs 38, 48, 49); IgG as control; cells, oxygen condition and precipitating antibody not given

| binding | Molecule |
| --- | --- |
| binds | CBP (from UniProt Q92793 1-2442) |
| binds | ZMIZ1 (protein, UniProt Q9ULJ6 1-1067) MNSMDRHIQQTNDRLQCIKQHLQNPANFHNAATELLDWCGDPRAFQRPFEQSLMGCLTVVSRVAAQQGFDLDLGYRLLAVCAANRDKFTPKSAALLSSWCEELGRLLLLRHQKSRQSDPPGKLPMQPPLSSMSSMKPTLSHSDGSFPYDSVPWQQNTNQPPGSLSVVTTVWGVTNTSQSQVLGNPMANANNPMNPGGNPMASGMTTSNPGLNSPQFAGQQQQFSAKAGPAQPYIQQSMYGRPNYPGSGGFGASYPGGPNAPAGMGIPPHTRPPADFTQPAAAAAAAAVAAAAATATATATATVAALQETQNKDINQYGPMGPTQAYNSQFMNQPGPRGPASMGGSMNPASMAAGMTPSGMSGPPMGMNQPRPPGISPFGTHGQRMPQQTYPGPRPQSLPIQNIKRPYPGEPNYGNQQYGPNSQFPTQPGQYPAPNPPRPLTSPNYPGQRMPSQPSSGQYPPPTVNMGQYYKPEQFNGQNNTFSGSSYSNYSQGNVNRPPRPVPVANYPHSPVPGNPTPPMTPGSSIPPYLSPSQDVKPPFPPDIKPNMSALPPPPANHNDELRLTFPVRDGVVLEPFRLEHNLAVSNHVFHLRPTVHQTLMWRSDLELQFKCYHHEDRQMNTNWPASVQVSVNATPLTIERGDNKTSHKPLHLKHVCQPGRNTIQITVTACCCSHLFVLQLVHRPSVRSVLQGLLKKRLLPAEHCITKIKRNFSSVAASSGNTTLNGEDGVEQTAIKVSLKCPITFRRIQLPARGHDCKHVQCFDLESYLQLNCERGTWRCPVCNKTALLEGLEVDQYMWGILNAIQHSEFEEVTIDPTCSWRPVPIKSDLHIKDDPDGIPSKRFKTMSPSQMIMPNVMEMIAALGPGPSPYPLPPPPGGTNSNDYSSQGNNYQGHGNFDFPHGNPGGTSMNDFMHGPPQLSHPPDMPNNMAALEKPLSHPMQETMPHAGSSDQPHPSIQQGLHVPHPSSQSGPPLHHSGAPPPPPSQPPRQPPQAAPSSHPHSDLTFNPSSALEGQAGAQGASDMPEPSLDLLPELTNPDELLSYLDPPDLPSNSNDDLLSLFENN |
